Data taken from ChEMBL document CHEMBL3988442, “University of Dundee, Small-Polar-MMV Screening Library” (2021).

By UniProt entry, the sequences of proteins in these tests, tags left out. Residues count along the entry.
UniProt Q8IDJ8, 1-583: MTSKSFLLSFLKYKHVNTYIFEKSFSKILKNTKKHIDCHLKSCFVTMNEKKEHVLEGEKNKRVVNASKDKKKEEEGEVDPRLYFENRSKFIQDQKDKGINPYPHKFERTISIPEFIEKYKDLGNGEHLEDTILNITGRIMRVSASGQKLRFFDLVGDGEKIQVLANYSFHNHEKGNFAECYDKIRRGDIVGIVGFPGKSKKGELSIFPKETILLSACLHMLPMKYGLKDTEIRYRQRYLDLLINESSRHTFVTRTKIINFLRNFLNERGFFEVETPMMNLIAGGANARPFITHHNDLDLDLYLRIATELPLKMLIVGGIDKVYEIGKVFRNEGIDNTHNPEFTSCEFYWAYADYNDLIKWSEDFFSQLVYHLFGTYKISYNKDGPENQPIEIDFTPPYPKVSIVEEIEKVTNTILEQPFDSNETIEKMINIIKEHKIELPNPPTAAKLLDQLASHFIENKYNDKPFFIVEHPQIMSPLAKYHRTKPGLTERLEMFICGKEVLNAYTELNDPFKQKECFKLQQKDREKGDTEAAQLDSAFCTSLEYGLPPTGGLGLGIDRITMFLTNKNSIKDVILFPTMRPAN
UniProt A4I591, 1-473: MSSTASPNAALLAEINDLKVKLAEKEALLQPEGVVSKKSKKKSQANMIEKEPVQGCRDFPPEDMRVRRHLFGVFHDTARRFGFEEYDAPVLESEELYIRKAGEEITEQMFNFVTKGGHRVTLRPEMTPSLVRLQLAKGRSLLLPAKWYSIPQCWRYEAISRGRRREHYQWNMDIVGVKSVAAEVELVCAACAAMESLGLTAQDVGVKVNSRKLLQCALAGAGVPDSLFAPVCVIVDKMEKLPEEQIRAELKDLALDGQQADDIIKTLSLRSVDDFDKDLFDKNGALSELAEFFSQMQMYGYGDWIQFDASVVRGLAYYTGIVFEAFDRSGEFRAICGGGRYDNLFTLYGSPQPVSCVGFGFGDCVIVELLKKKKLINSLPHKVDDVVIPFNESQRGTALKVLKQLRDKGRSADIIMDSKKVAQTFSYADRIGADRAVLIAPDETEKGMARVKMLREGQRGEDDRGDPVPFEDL

A: 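Whole-parasite assay of Trypanosoma brucei over 72 hours; the read-out is not stated. Tested at 30 µM. The record gives no direction; compounds that gave an IC50 in retests scored well above the rest, so higher reads as stronger inhibition. Values scatter widely below zero; nearly all retest evidence comes from the higher of the two concentrations used. Of about 64,000 compounds tested this way, about 940 (1.5%) reached 50% or more in at least one test.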
B: 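Lysine-tRNA ligase, Plasmodium falciparum 3D7 (UniProt Q8IDJ8). Enzyme assay of the cytosolic lysyl-tRNA synthetase in 384-well plates, read by luminescence. Concentration: 30 µM. Direction is inferred from only a few compounds that gave an IC50; most scored high, so higher reads as stronger inhibition. Size under these conditions: about 69,000 compounds, about 49 of them at 50% or above in at least one test.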
C: 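Histidine-tRNA ligase, Leishmania infantum (UniProt A4I591). Enzyme assay of histidyl-tRNA synthetase; the read-out is not stated. Concentration: 30 µM. Higher reads as stronger inhibition (inferred: compounds with an IC50 in retests scored well above the rest). The assay is labelled LdHisRS but filed under L. infantum. About 69,000 compounds were tested under these conditions; 0.6% (about 410) showed 50% or more at least once.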
D: 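Assay of Toxoplasma gondii numbers, read through their beta-galactosidase reporter with a colour substrate. Tested at 10 µM. The record gives no direction; the compounds picked for IC50 retests had high values, so higher reads as fewer parasites. Size under these conditions: about 67,000 compounds, about 260 of them at 50% or above in at least one test.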

Each number is a percent effect as filed. The record does not define 0% and 100%; most values in the screen are far below 50% and negative numbers occur (in some assays of this library far below -100). This is an unselected part of the compounds tested. A dash means the value is not listed here; it may have been measured.

Compound: [H][C@]12CN(Cc3ccco3)C[C@@]1([H])OCCN(C(=O)c1cccn1C)C2
A: -61.64
D: -39.36

Compound: CCNC(=O)Cc1c(C)nc2c(c1C)c(=O)[nH]n2C
A: -34.32
B: 2.361
C: 22.58
D: -3.932

Compound: Cc1csc(C2CCCN(C(=O)c3cccc4c3OCO4)C2)n1 (centres unmarked)
A: 1.787
B: 3.37
C: 14.78
D: -6.777

Compound: OC1CN(Cc2cccc(N3CCOCC3)c2)Cc2ccccc21 (centres unmarked)
A: -17.56
B: 1.086
C: 16
D: 18.6

Compound: CC(Cn1cccn1)NCc1nc(-c2ccccc2Cl)no1 (centres unmarked)
A: 15.76
B: 0.9393
C: 16.67
D: -28.79

Compound: O=S(=O)(Nc1cn[nH]c1)c1ccc(F)c(Br)c1
A: -29.42
B: 4.286
C: 5.263
D: -29.05

Compound: O=C(Nc1ccc(OC(F)F)cc1)N1CCC(c2nnc[nH]2)CC1
A: -6.765
B: 2.477
C: 5.333
D: 3.373

Compound: COCCC(=O)Nc1nc2c(OC)cc(F)cc2s1
A: -3.195
B: 2.259
C: 8.29
D: 2.295

Compound: [H][C@@]12C[C@@H](C)O[C@]1([H])CN(C(=O)C1=CCCC1)C2
A: -23.08
D: -20.09

Compound: CCn1nc(C)c2ncnc(N(C)C)c21
A: -26.31
B: -0.6948
C: 7.143
D: -0.5596

Compound: CC(=O)N1CC2(CCN(C(=O)N(C)C)CC2)c2cc(C)ccc21
A: -13.26
B: 1.118
C: -2.632
D: -1.372

Compound: CN1C[C@@H]2CC[C@H](CC1=O)N2C(=O)c1ccc(-c2ccccc2)[nH]c1=O
B: 16.27
C: 8.85

Compound: CCC(=O)Nc1ccc(N2CCC(OC)CC2)c(C(F)(F)F)c1
A: -35.12
B: 5.778
C: 12.86
D: -4.619

Compound: Cc1ccccc1-n1cnnc1SCCOCC1CCCO1 (centres unmarked)
A: -22.78
B: 1.917
C: -6.25
D: -4.234

Compound: O=C(NCc1ccc(Cl)s1)c1cc(CN2CCCC(O)C2)on1 (centres unmarked)
A: -24.85
B: 0.4617
C: 2.128
D: -2.136

Compound: Cc1ccc(C(=O)NC2CC2)c(-n2cnnn2)c1C
A: -25.96
B: -3.112
C: 1.099
D: -10.97

Compound: CC(=O)N[C@@H]1CN(Cc2ccccc2C#N)C[C@H]1c1ccc(C)cc1
A: -10.79
B: 0.07624
C: 24.39
D: 2.656

Compound: COc1ccc(C2(NC(=O)C3CC(=O)N(C)C3)CCCC2)cc1 (centres unmarked)
A: -28.1
B: 0.7317
C: 2.5
D: -4.806

Compound: [H][C@@]12C[C@H](C(=O)NC3CCC3)[C@@]([H])(CN(S(=O)(=O)c3ccccc3)C1)O2
A: -73.66
D: -3.032

Compound: CC1(C(N)=O)CN(CC2CCOCC2)CCO1 (centres unmarked)
A: -34.53
B: -2.151
C: 4.225
D: -9.864

Compound: Cc1cccc(CNC(=O)CNc2cc(CO)ccc2Cl)c1
A: 50.69
B: 8.416
C: 14.29
D: -0.2514

Compound: CC(=O)NC1CCCN(C(=O)Nc2nnc(C(C)C)s2)C1 (centres unmarked)
A: 4.441
B: 6.404
C: 8.571
D: 5.407

Compound: O=C(NCc1ccccn1)[C@@H]1CC[C@@H]2[C@@H](CCN2c2ncc(F)cn2)O1
B: -1.349
C: 7

Compound: Cc1noc(CN2CCCC2c2noc(C3CC3)n2)n1 (centres unmarked)
A: -37.92
B: -1.517
C: 7.895
D: -3.209

Compound: COCCN1CCC2(CC1)CC(NC(=O)C1CC1)c1ccccc1O2 (centres unmarked)
B: 4.737
C: 13.46

Compound: [H][C@]12CC[C@@]3(N=C(c4ccccc4)NC3=O)[C@@]1([H])CN(Cc1ccoc1)C2
A: 18.73
D: 1.108

Compound: CCN(Cc1nc(COC)no1)C(=O)CCn1c(C)cc2ccccc21
A: -26.7
B: 5.817
C: 11.76
D: -3.114

Compound: COc1ccccc1C(=O)Nc1nc2c(s1)CN(S(=O)(=O)C1CC1)CC2
A: -8.375
B: -0.4751
C: 30.77
D: 2.858

Compound: [H][C@]12CN(Cc3ncccn3)CC[C@@]1(O)CCN(C(=O)C1CCCC1)C2
A: 8.676
D: 2.116

The last 3 entries again:

Compound,A,B,C,D
CCN(Cc1nc(COC)no1)C(=O)CCn1c(C)cc2ccccc21,-26.7,5.817,11.76,-3.114
COc1ccccc1C(=O)Nc1nc2c(s1)CN(S(=O)(=O)C1CC1)CC2,-8.375,-0.4751,30.77,2.858
[H][C@]12CN(Cc3ncccn3)CC[C@@]1(O)CCN(C(=O)C1CCCC1)C2,8.676,-,-,2.116